# Experimental data: PubChem BioAssay AID504444 (National Center for Advancing Translational Sciences (NCATS), 2011)
# Hit rate of the full screen: of about 360,000 compounds, about 7,500 (2.1%) were called active. Inconclusive results, whose numbers are uncertain, are shown with a selection of clear calls. Calls follow the shape of the dose curve; as a rule, active = well fitted inhibition curve with a large enough effect; inconclusive = small, poorly fitted or top-dose-only effect, or effect the other way; inactive = flat fitted curve, though single readings scatter. Potencies beside an inconclusive call are fits to weak or partial responses and may not hold up.
# Assay: Nrf2 qHTS screen for inhibitors; also: nearly all actives have a fitted effect of over 60% in size
# Settings: A549 ARE-Fluc reporter, luciferase luminescence, 18-24 h; activity change, negative = inhibition: at 46 µM (top of the series)
# Summary of the method: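 Reporter: ARE-Fluc in A549. Exposure: 18-24 h, 37 °C, 5% CO2, 5% FBS OPTI-MEM. Readouts: fluorescent cytotoxicity (CellTiter-Fluor), then luminescent Nrf2 signal after BugLite.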
# % is scaled to controls: 0 for no effect and ±100 for the full control effect; potency is read from the fitted curve at half-maximal effect.
Structure (SMILES),"activity change, negative = inhibition",Potency
CCCNC(=O)c1cc2nc(-c3ccc(Br)cc3)cc(C(F)(F)F)n2n1,inactive: -8.54%,
O=C(NC(=S)N1CCCCC1c1cccnc1)c1ccccc1 (stereo not drawn),,"inconclusive: 16.4 µM [falling, partial curve, poor fit]"
Cc1csc(NC(=O)CSc2nnc3c4ccccc4nc(C(C)(C)C)n23)n1,,"inconclusive: 14.6 µM [falling, partial curve]"
CCCCCCn1c(COc2ccccc2F)nnc1SCC(=O)N1c2ccccc2NC(=O)C1(C)C,,"inconclusive: 16.4 µM [falling, single point]"
CC(=O)N1c2ccc(S(=O)(=O)NCCc3ccccc3)cc2CC1C (stereo not drawn),,"inconclusive: 29.1 µM [falling, partial curve, poor fit]"
CC1=C(C)C(C)=C(C#N)C(=C(C#N)C#N)N1,inactive: -12.5%,
O=C(NC(=S)Nc1nc2ccccc2s1)c1cccs1,,"inconclusive: 8.2 µM [activator, partial curve]"
COc1ccc(NC(=O)Nc2cccc(OC)c2)cc1,inactive: 25.9%,
O=C(CC12CC3CC(CC(C3)C1)C2)NC(=S)Nc1ccc(CN2CCOCC2)cc1,,"inconclusive: 29.1 µM [activator, single point]"
O=C(N/N=C/C(Cl)=C/c1ccccc1)c1ccco1,,"inconclusive: 8.2 µM [activator, partial curve]"
CCN(CC)S(=O)(=O)c1cccc(NC(=O)C2CC(=O)N(c3ccc4c(c3)OCCO4)C2)c1 (stereo not drawn),,active: 23.1 µM
CCOc1ccc(NS(=O)(=O)c2ccc(C(=O)N3CCCC3)cc2)cc1,,"inconclusive: 23.1 µM [falling, partial curve]"
CSc1ncccc1C(=O)OCC(=O)c1cc(C)n(CC2CCCO2)c1C (stereo not drawn),,"inconclusive: 8.2 µM [activator, partial curve]"
O=C(COc1ccc(F)cc1)Nc1nc2c(s1)CCCC2,,"inconclusive: 25.9 µM [activator, single point]"
O=C1c2cccc3cccc(c23)C(=O)N1CCCN(C(=O)c1cccs1)c1cccc(F)c1,,"inconclusive: 4.11 µM [falling, partial curve, poor fit]"
CCc1nn(C(C)C(=O)NCCN2CCN(c3cccc(C)c3C)CC2)c(=O)c2cc3occc3n12 (stereo not drawn),,"inconclusive: 29.1 µM [falling, single point]"
COc1cccc(C(=O)Nc2ccc(NC(=O)c3ccco3)nc2)c1,,"inconclusive: 29.1 µM [activator, single point]"
COC(=O)C1(C)NC(c2ccc(F)cc2)C2C(=O)N(c3ccc(C)cc3)C(=O)C21 (stereo not drawn),,"inconclusive: 25.9 µM [activator, partial curve]"
Cc1ccc(SCC2=NN(c3nc(C)cc(C)n3)C(=O)C2)cc1,inactive: 7.5%,
C/C(=N\NC(=O)C(=O)Nc1cc(C)ccc1C)c1ccncc1,,"inconclusive: 0.231 µM [falling, full curve, poor fit]"
COC(=O)CCN1CCc2cc(N=Nc3ccc([N+](=O)[O-])cc3)ccc21,,"inconclusive: 1.03 µM [activator, full curve]"

Structure (SMILES),"activity change, negative = inhibition",Potency
O=C(O)c1cccc(-c2ccc3c(c2)OCO3)c1,,"inconclusive: 5.8 µM [falling, single point]"
O=C1CC(c2cccc([N+](=O)[O-])c2)c2ccc3ccccc3c2N1 (stereo not drawn),inactive: 8.1%,
Cn1cccc1/C=C1\SC(=O)N(c2ccccc2)C1=O,,"inconclusive: 7.31 µM [activator, partial curve, poor fit]"
Cc1nc(C(Cl)(Cl)Cl)nc2[nH]ccc(=O)c12,,"inconclusive: 32.6 µM [falling, partial curve, poor fit]"
O=c1c(Br)c(N2CCOCC2)cnn1-c1ccccc1,,"inconclusive: 32.6 µM [activator, single point]"
O=C(Nc1nc2ccccc2s1)C1CCCO1 (stereo not drawn),,"inconclusive: 5.8 µM [activator, full curve]"
COc1cc(/C=N/NC(=O)c2ccccn2)ccc1OC(=O)c1ccccc1Br,,"inconclusive: 25.9 µM [falling, single point]"
CCOc1ccc(N(CC(=O)Nc2cccc(N(C)S(C)(=O)=O)c2)S(=O)(=O)c2ccccc2)cc1,,"inconclusive: 16.4 µM [falling, single point]"
Cc1ccc2c(=O)c(C(=O)c3ccccc3)cn(CC(=O)Nc3ccc4c(c3)OCCO4)c2n1,,"inconclusive: 20.6 µM [activator, partial curve]"
CC(C)(C)c1ccc(C2Sc3ccccc3NC3=C2C(=O)c2ccccc23)cc1 (stereo not drawn),,active: 18.4 µM
C=CCSc1nc2sc3c(c2c(=O)n1-c1ccc(C)cc1)CCN(C)C3,,"inconclusive: 20.6 µM [falling, single point]"
Cc1cc(/C(N)=N/OC(=O)Nc2cccc(C(F)(F)F)c2)no1,,"inconclusive: 2.06 µM [activator, full curve]"
CC(=O)NC(c1ccc(Cl)cc1)c1ccc2cccnc2c1O (stereo not drawn),,"inconclusive: 11.6 µM [falling, partial curve, poor fit]"
S=C(NCC1CCCO1)Nc1ccc(Cl)cc1Cl (stereo not drawn),,"inconclusive: 6.51 µM [falling, single point]"
COc1ccc(-n2nc(C(=O)NCC(=O)N3CCCCCC3)c3ccccc3c2=O)c(OC)c1,,"inconclusive: 20.6 µM [activator, partial curve]"
CCCC(=O)OCC(=O)NCc1ccc(Cl)cc1,,"inconclusive: 1.84 µM [falling, partial curve, poor fit]"
COc1ccc(C(=O)Oc2ccc(N(C)S(=O)(=O)c3ccccc3)cc2)cc1[N+](=O)[O-],,"inconclusive: 20.6 µM [activator, partial curve, poor fit]"
COc1ccc(CNC(=O)COc2ccc(S(=O)(=O)N3CCCCC3)cc2Cl)cc1,,"inconclusive: 20.6 µM [falling, single point]"
CN(c1ccccc1)S(=O)(=O)c1ccc(Cl)c(C(=O)Nc2nc3ccccc3[nH]2)c1,,"inconclusive: 29.1 µM [falling, single point]"
COC(=O)c1ccc(-c2ccc(OC)c(C3C4C=CCC(C)C4C(=O)N3Cc3ccccc3)c2)cc1 (stereo not drawn),inactive: -3.16%,
COc1ccc(-c2noc(C3CCCN(C(=O)c4cccs4)C3)n2)cc1 (stereo not drawn),,"inconclusive: 29.1 µM [falling, single point]"

# A few values from above.
# COC(=O)c1ccc(-c2ccc(OC)c(C3C4C=CCC(C)C4C(=O)N3Cc3ccccc3)c2)cc1 (stereo not drawn) | activity change, negative = inhibition: inactive: -3.16%
# COc1ccc(NC(=O)Nc2cccc(OC)c2)cc1 | activity change, negative = inhibition: inactive: 25.9%

# Further entries follow.

Structure (SMILES),"activity change, negative = inhibition",Potency
O=C(NNC(=S)Nc1ccccc1Cl)c1ccccc1Br,,"inconclusive: 6.51 µM [activator, partial curve]"
Cc1cc(C)cc(OCCn2c(C3CC(=O)N(c4ccccc4Cl)C3)nc3ccccc32)c1 (stereo not drawn),,"inconclusive: 29.1 µM [falling, single point]"
CC(=O)Nc1ccc2c(c1)ncn2C1CCCCC1,,"inconclusive: 8.2 µM [activator, partial curve, poor fit]"
CC1=C(C(=O)Nc2ccccc2)C(c2ccccc2C)n2ncc(C(=O)Nc3ccccc3)c2N1 (stereo not drawn),,"inconclusive: 14.6 µM [activator, partial curve, poor fit]"
COC(=O)Nc1ccc(S(=O)(=O)N2CCCc3cccc(O)c32)cc1,,"inconclusive: 29.1 µM [falling, single point]"
O=C(Nc1cc(Sc2ccccn2)cc([N+](=O)[O-])c1)c1ccc([N+](=O)[O-])cc1,,"inconclusive: 11.6 µM [falling, partial curve, poor fit]"
CC(=O)c1ccc(N2CCN(S(=O)(=O)c3c(C)nc4sc(C)cn4c3=O)CC2)cc1,inactive: -8.54%,
Cc1ccc(CNC(=O)C(=O)NCC2OCCN2S(=O)(=O)c2ccc3c(c2)OCCO3)cc1 (stereo not drawn),,active: 10.3 µM
O=C(Nc1ccccc1F)c1ccco1,,"inconclusive: 20.6 µM [activator, single point]"
O=C(C1CC1)N1CCc2cc(Br)cc(S(=O)(=O)NCCCN3CCCCC3)c21,,"inconclusive: 3.66 µM [activator, partial curve, poor fit]"
CCCn1c(SCc2nc(-c3ccccc3C)no2)nnc1-c1ccc(Cl)cc1,,"inconclusive: 20.6 µM [falling, single point]"
Cc1cccc(N2CCN(C(=O)C3CCC(CNS(=O)(=O)c4ccc(Br)s4)CC3)CC2)c1C (stereo not drawn),,"inconclusive: 4.11 µM [falling, full curve, poor fit]"
Cc1ccc2nc(Cl)c(/C=C/C(=O)c3ccco3)cc2c1,,"inconclusive: 2.59 µM [falling, partial curve, poor fit]"
COc1ccc(N2C(=O)CSC23C(=O)N(CC(=O)NC2CCCCC2)c2ccccc23)cc1 (stereo not drawn),inactive: -0.747%,
CC1CCC2C(C1)c1sc(=O)[nH]c1SC2(C)C (stereo not drawn),,"inconclusive: 29.1 µM [falling, single point]"
O=C(Nc1ccc(C(F)(F)F)cc1[N+](=O)[O-])O[C@H]1[C@H](Cc2ccccc2)NS(=O)(=O)[C@H]2C[C@@H]3C=C[C@]12O3,,"inconclusive: 7.31 µM [activator, partial curve, poor fit]"
CC(C)(C)n1cnc2cc(NC(=O)c3cccs3)ccc21,,"inconclusive: 5.8 µM [activator, partial curve]"
CC1=C/C(=N\OS(=O)(=O)c2ccccc2)C(C)=CC1=O,inactive: -2.57%,
COc1ccc(Cn2c(C(=O)O)c(CNCc3cccc(OC)c3)c3ccc(C)cc32)cc1,inactive: -21.6%,
CC(C)C[C@@H](CN1CCCC1CN1C(=S)NC[C@@H]1Cc1ccc(O)cc1)N1C[C@H](Cc2ccc(O)cc2)N(CC2CCCCC2)C1=S (stereo partly drawn),,"inconclusive: 9.2 µM [falling, partial curve]"
CCn1c(=O)cc(OCC(=O)O)c2ccccc21,,"inconclusive: 0.164 µM [falling, full curve, poor fit]"

# Taken from the results shown for reference:
Structure (SMILES),"activity change, negative = inhibition",Potency
O=C(Nc1ccc(C(F)(F)F)cc1[N+](=O)[O-])O[C@H]1[C@H](Cc2ccccc2)NS(=O)(=O)[C@H]2C[C@@H]3C=C[C@]12O3,,"inconclusive: 7.31 µM [activator, partial curve, poor fit]"
CC(C)(C)n1cnc2cc(NC(=O)c3cccs3)ccc21,,"inconclusive: 5.8 µM [activator, partial curve]"
CC1=C/C(=N\OS(=O)(=O)c2ccccc2)C(C)=CC1=O,inactive: -2.57%,
